Measurements reported in US10087425B2, “Chimeric enzymes for conversion of lignin-derived chemicals” (Alliance for Sustainable Energy, LLC, priority 2016, dated 2018).
The name of at least one read-out is uncertain.

Assay: NADH consumption monitored by UV/Vis at 340 nm during guaiacol demethylation, fit to Michaelis-Menten model
Type: biochemical, Amycolatopsis sp. ATCC 39116
Details: GcoAB reaction, NADH oxidation at 340 nm

B1: GcoA[G72D]: Variant cytochrome P450 O-dealkylase GcoA with G to D replacement at position 72, evolved in Acinetobacter baylyi (protein, UniProt P0DPQ7 1-407, looked up, variant G72D)
Aromatic O-demethylase, …: MTTTERPDLAWLDEVTMTQLERNPYEVYERLRAEAPLAFVPVLGSYVASTAEVCREVATSPDFEAVITPAGDRTFGHPAIIGVNGDIHADLRSMVEPALQPAEVDRWIDDLVRPIARRYLERFENDGHAELVAQYCEPVSVRSLGDLLGLQEVDSDKLREWFAKLNRSFTNAAVDENGEFANPEGFAEGDQAKAEIRAVVDPLIDKWIEHPDDSAISHWLHDGMPPGQTRDREYIYPTIYVYLLGAMQEPGHGMASTLVGLFSRPEQLEEVVDDPTLIPRAIAEGLRWTSPIWSATARISTKPVTIAGVDLPAGTPVMLSYGSANHDTGKYEAPSQYDLHRPPLPHLAFGAGNHACAGIYFANHVMRIALEELFEAIPNLERDTREGVEFWGWGFRGPTSLHVTWEV
catalytic efficiency (kcat/KM) compared to the native GcoA: increased catalytic efficiency
